In paper PMC10698284:
These are yes or no findings as the source states them, for the method shown. In cells and extracts the contact can be indirect. A yes stands for co-enrichment or nearness to the bait. Other partners may have been found.

The chains behind the UniProt entries cited, without tags or fusion partners. Where a name states a change or a piece, a line headed by the entry shows the natural chain unless it says otherwise. A line that says so, or that is headed by a name, gives the form on record, which may keep a tag or linker. Residues count along the entry.
FLAG-SLC3A2 WTseq (P08195, residues 66-630): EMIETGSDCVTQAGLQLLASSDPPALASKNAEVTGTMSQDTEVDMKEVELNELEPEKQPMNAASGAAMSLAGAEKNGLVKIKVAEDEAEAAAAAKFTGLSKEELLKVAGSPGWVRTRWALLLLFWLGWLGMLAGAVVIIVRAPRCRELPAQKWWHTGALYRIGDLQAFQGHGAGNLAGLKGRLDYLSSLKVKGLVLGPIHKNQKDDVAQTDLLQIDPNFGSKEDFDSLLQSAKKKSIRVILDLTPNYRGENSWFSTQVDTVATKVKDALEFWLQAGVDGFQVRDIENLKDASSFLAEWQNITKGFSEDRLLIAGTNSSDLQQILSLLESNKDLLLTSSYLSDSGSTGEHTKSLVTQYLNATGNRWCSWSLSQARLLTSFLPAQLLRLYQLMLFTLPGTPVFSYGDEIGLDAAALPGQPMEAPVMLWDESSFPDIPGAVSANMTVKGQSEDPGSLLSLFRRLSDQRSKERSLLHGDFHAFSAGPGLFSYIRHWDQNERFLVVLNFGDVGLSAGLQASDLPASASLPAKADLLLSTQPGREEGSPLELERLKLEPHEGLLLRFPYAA
FLAG-SLC3A2 A273N (P08195, form named): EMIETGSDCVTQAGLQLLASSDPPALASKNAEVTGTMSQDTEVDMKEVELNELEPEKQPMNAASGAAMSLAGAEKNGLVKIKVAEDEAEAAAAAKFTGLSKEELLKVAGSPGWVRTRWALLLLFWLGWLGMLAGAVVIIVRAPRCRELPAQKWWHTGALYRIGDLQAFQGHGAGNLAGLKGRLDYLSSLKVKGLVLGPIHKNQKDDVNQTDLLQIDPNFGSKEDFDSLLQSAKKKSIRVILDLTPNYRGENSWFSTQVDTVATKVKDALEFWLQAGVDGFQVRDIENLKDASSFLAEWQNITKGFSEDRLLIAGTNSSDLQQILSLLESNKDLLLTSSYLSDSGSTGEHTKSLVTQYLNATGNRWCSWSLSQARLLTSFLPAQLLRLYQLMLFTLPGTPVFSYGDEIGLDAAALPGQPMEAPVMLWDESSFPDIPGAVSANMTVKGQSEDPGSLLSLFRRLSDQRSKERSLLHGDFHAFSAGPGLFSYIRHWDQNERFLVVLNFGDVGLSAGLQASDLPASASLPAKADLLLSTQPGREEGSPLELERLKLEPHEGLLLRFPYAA
FLAG-SLC3A2 A273N + D355N (P08195, form named): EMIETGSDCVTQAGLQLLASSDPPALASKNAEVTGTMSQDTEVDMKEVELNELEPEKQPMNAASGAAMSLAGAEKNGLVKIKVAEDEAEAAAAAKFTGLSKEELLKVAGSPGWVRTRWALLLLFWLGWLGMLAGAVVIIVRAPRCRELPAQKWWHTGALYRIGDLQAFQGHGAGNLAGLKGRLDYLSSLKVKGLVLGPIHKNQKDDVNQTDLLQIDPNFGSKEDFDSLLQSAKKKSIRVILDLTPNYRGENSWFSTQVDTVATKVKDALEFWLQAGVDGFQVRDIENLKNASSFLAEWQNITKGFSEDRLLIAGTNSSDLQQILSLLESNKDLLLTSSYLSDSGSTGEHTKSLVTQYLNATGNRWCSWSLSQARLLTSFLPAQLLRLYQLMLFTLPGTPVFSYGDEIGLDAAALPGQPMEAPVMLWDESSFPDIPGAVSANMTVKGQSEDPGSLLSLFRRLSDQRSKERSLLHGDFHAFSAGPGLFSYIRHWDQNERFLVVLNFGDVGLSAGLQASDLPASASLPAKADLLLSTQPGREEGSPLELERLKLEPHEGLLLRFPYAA

Assays:
Test in all cases: affinity purification with mass spectrometry; anti-FLAG M2 agarose, 4 h at 4 °C, 1 mg lysate (0.5% NP40, 50 mM HEPES pH 8.0, 100 mM KCl, 1 mM EDTA, 10% glycerol) of HeLa Flp-In T-REx SLC3A2 KO cells with dox-induced FLAG-SLC3A2 WTseq or site variants; on-bead trypsin digest, DDA and SWATH; control: dox-treated SLC3A2 KO cells; in some samples 10 μM fluvastatin or 250 ng/ml swainsonine for the final 24 h
[1] = molecular target: FLAG-SLC3A2 WTseq (human) (UniProt P08195)
[2] = molecular target: FLAG-SLC3A2 A273N (human) (UniProt P08195)
[3] = molecular target: FLAG-SLC3A2 A273N + D355N (human) (UniProt P08195)

B1: SLC25A19 (protein, UniProt Q9HC21 1-320)
chain: MVGYDPKPDGRNNTKFQVAVAGSVSGLVTRALISPFDVIKIRFQLQHERLSRSDPSAKYHGILQASRQILQEEGPTAFWKGHVPAQILSIGYGAVQFLSFEMLTELVHRGSVYDAREFSVHFVCGGLAACMATLTVHPVDVLRTRFAAQGEPKVYNTLRHAVGTMYRSEGPQVFYKGLAPTLIAIFPYAGLQFSCYSSLKHLYKWAIPAEGKKNENLQNLLCGSGAGVISKTLTYPLDLFKKRLQVGGFEHARAAFGQVRRYKGLMDCAKQVLQKEGALGFFKGLSPSLLKAALSTGFMFFSYEFFCNVFHCMNRTASQR
Q: With B1 as the binder, how does the binding [1] read?
A: The binding was “binds”.

B2: SLC25A22 (protein, UniProt Q9H936 1-323)
chain: MADKQISLPAKLINGGIAGLIGVTCVFPIDLAKTRLQNQQNGQRVYTSMSDCLIKTVRSEGYFGMYRGAAVNLTLVTPEKAIKLAANDFFRHQLSKDGQKLTLLKEMLAGCGAGTCQVIVTTPMEMLKIQLQDAGRIAAQRKILAAQGQLSAQGGAQPSVEAPAAPRPTATQLTRDLLRSRGIAGLYKGLGATLLRDVPFSVVYFPLFANLNQLGRPASEEKSPFYVSFLAGCVAGSAAAVAVNPCDVVKTRLQSLQRGVNEDTYSGILDCARKILRHEGPSAFLKGAYCRALVIAPLFGIAQVVYFLGIAESLLGLLQDPQA
Q: B2 was tested. Which binding [1] did it give?
A: The binding was “binds”.

B3: SLC25A13 (protein, UniProt Q9UJS0 1-675)
chain: MAAAKVALTKRADPAELRTIFLKYASIEKNGEFFMSPNDFVTRYLNIFGESQPNPKTVELLSGVVDQTKDGLISFQEFVAFESVLCAPDALFMVAFQLFDKAGKGEVTFEDVKQVFGQTTIHQHIPFNWDSEFVQLHFGKERKRHLTYAEFTQFLLEIQLEHAKQAFVQRDNARTGRVTAIDFRDIMVTIRPHVLTPFVEECLVAAAGGTTSHQVSFSYFNGFNSLLNNMELIRKIYSTLAGTRKDVEVTKEEFVLAAQKFGQVTPMEVDILFQLADLYEPRGRMTLADIERIAPLEEGTLPFNLAEAQRQKASGDSARPVLLQVAESAYRFGLGSVAGAVGATAVYPIDLVKTRMQNQRSTGSFVGELMYKNSFDCFKKVLRYEGFFGLYRGLLPQLLGVAPEKAIKLTVNDFVRDKFMHKDGSVPLAAEILAGGCAGGSQVIFTNPLEIVKIRLQVAGEITTGPRVSALSVVRDLGFFGIYKGAKACFLRDIPFSAIYFPCYAHVKASFANEDGQVSPGSLLLAGAIAGMPAASLVTPADVIKTRLQVAARAGQTTYSGVIDCFRKILREEGPKALWKGAGARVFRSSPQFGVTLLTYELLQRWFYIDFGGVKPMGSEPVPKSRINLPAPNPDHVGGYKLAVATFAGIENKFGLYLPLFKPSVSTSKAIGGGP
Q: B3 was tested. Which binding [1] did it give?
A: The binding was “binds”.

B4: SLC1A5 (protein, UniProt Q15758 1-541)
chain: MVADPPRDSKGLAAAEPTANGGLALASIEDQGAAAGGYCGSRDQVRRCLRANLLVLLTVVAVVAGVALGLGVSGAGGALALGPERLSAFVFPGELLLRLLRMIILPLVVCSLIGGAASLDPGALGRLGAWALLFFLVTTLLASALGVGLALALQPGAASAAINASVGAAGSAENAPSKEVLDSFLDLARNIFPSNLVSAAFRSYSTTYEERNITGTRVKVPVGQEVEGMNILGLVVFAIVFGVALRKLGPEGELLIRFFNSFNEATMVLVSWIMWYAPVGIMFLVAGKIVEMEDVGLLFARLGKYILCCLLGHAIHGLLVLPLIYFLFTRKNPYRFLWGIVTPLATAFGTSSSSATLPLMMKCVEENNGVAKHISRFILPIGATVNMDGAALFQCVAAVFIAQLSQQSLDFVKIITILVTATASSVGAAGIPAGGVLTLAIILEAVNLPVDHISLILAVDWLVDRSCTVLNVEGDALGAGLLQNYVDRTESRSTEPELIQVKSELPLDPLPVPTEEGNPLLKHYRGPAGDATVASEKESVM
Q: Which results are given for B4?
A: binding [2]: binds; binding [1]: binds; binding [3]: binds

B5: TMX3 (protein, UniProt Q96JJ7 25-454)
chain: KGFVEDLDESFKENRNDDIWLVDFYAPWCGHCKKLEPIWNEVGLEMKSIGSPVKVGKMDATSYSSIASEFGVRGYPTIKLLKGDLAYNYRGPRTKDDIIEFAHRVSGALIRPLPSQQMFEHMQKRHRVFFVYVGGESPLKEKYIDAASELIVYTYFFSASEEVVPEYVTLKEMPAVLVFKDETYFVYDEYEDGDLSSWINRERFQNYLAMDGFLLYELGDTGKLVALAVIDEKNTSVEHTRLKSIIQEVARDYRDLFHRDFQFGHMDGNDYINTLLMDELTVPTVVVLNTSNQQYFLLDRQIKNVEDMVQFINNILDGTVEAQGGDSILQRLKRIVFDAKSTIVSIFKSSPLMGCFLFGLPLGVISIMCYGIYTADTDGGYIEERYEVSKSENENQEQIEESKEQQEPSSGGSVVPTVQEPKDVLEKKKD
Q: What does the source list for B5?
A: binding [2]: binds; binding [1]: binds

B6: STT3A (protein, UniProt P46977 1-705)
chain: MTKFGFLRLSYEKQDTLLKLLILSMAAVLSFSTRLFAVLRFESVIHEFDPYFNYRTTRFLAEEGFYKFHNWFDDRAWYPLGRIIGGTIYPGLMITSAAIYHVLHFFHITIDIRNVCVFLAPLFSSFTTIVTYHLTKELKDAGAGLLAAAMIAVVPGYISRSVAGSYDNEGIAIFCMLLTYYMWIKAVKTGSICWAAKCALAYFYMVSSWGGYVFLINLIPLHVLVLMLTGRFSHRIYVAYCTVYCLGTILSMQISFVGFQPVLSSEHMAAFGVFGLCQIHAFVDYLRSKLNPQQFEVLFRSVISLVGFVLLTVGALLMLTGKISPWTGRFYSLLDPSYAKNNIPIIASVSEHQPTTWSSYYFDLQLLVFMFPVGLYYCFSNLSDARIFIIMYGVTSMYFSAVMVRLMLVLAPVMCILSGIGVSQVLSTYMKNLDISRPDKKSKKQQDSTYPIKNEVASGMILVMAFFLITYTFHSTWVTSEAYSSPSIVLSARGGDGSRIIFDDFREAYYWLRHNTPEDAKVMSWWDYGYQITAMANRTILVDNNTWNNTHISRVGQAMASTEEKAYEIMRELDVSYVLVIFGGLTGYSSDDINKFLWMVRIGGSTDTGKHIKENDYYTPTGEFRVDREGSPVLLNCLMYKMCYYRFGQVYTEAKRPPGFDRVRNAEIGNKDFELDVLEEAYTTEHWLVRIYKVKDLDNRGLSRT
Q: Which binding [1] does the source give for B6 here?
A: The binding was “binds”.

B7: DDOST (protein, UniProt P39656 43-456)
chain: SGPRTLVLLDNLNVRETHSLFFRSLKDRGFELTFKTADDPSLSLIKYGEFLYDNLIIFSPSVEDFGGNINVETISAFIDGGGSVLVAASSDIGDPLRELGSECGIEFDEEKTAVIDHHNYDISDLGQHTLIVADTENLLKAPTIVGKSSLNPILFRGVGMVADPDNPLVLDILTGSSTSYSFFPDKPITQYPHAVGKNTLLIAGLQARNNARVIFSGSLDFFSDSFFNSAVQKAAPGSQRYSQTGNYELAVALSRWVFKEEGVLRVGPVSHHRVGETAPPNAYTVTDLVEYSIVIQQLSNGKWVPFDGDDIQLEFVRIDPFVRTFLKKKGGKYSVQFKLPDVYGVFQFKVDYNRLGYTHLYSSTQVSVRPLQHTQYERFIPSAYPYYASAFSMMLGLFIFSIVFLHMKEKEKSD
Q: Which binding [1] does the source give for B7 here?
A: The binding was “binds”.

B8: RPN1 (protein, UniProt P04843 24-607)
chain: ASSEAPPLINEDVKRTVDLSSHLAKVTAEVVLAHLGGGSTSRATSFLLALEPELEARLAHLGVQVKGEDEEENNLEVRETKIKGKSGRFFTVKLPVALDPGAKISVIVETVYTHVLHPYPTQITQSEKQFVVFEGNHYFYSPYPTKTQTMRVKLASRNVESYTKLGNPTRSEDLLDYGPFRDVPAYSQDTFKVHYENNSPFLTITSMTRVIEVSHWGNIAVEENVDLKHTGAVLKGPFSRYDYQRQPDSGISSIRSFKTILPAAAQDVYYRDEIGNVSTSHLLILDDSVEMEIRPRFPLFGGWKTHYIVGYNLPSYEYLYNLGDQYALKMRFVDHVFDEQVIDSLTVKIILPEGAKNIEIDSPYEISRAPDELHYTYLDTFGRPVIVAYKKNLVEQHIQDIVVHYTFNKVLMLQEPLLVVAAFYILFFTVIIYVRLDFSITKDPAAEARMKVACITEQVLTLVNKRIGLYRHFDETVNRYKQSRDISTLNSGKKSLETEHKALTSEIALLQSRLKTEGSDLCDRVSEMQKLDAQVKELVLKSAVEAERLVAGKLKKDTYIENEKLISGKRQELVTKIDHILDAL
Q: How did the binding [1] turn out when B8 was run?
A: The binding was “binds”.

B9: SLC25A6 (protein, UniProt P12236 1-298)
chain: MTEQAISFAKDFLAGGIAAAISKTAVAPIERVKLLLQVQHASKQIAADKQYKGIVDCIVRIPKEQGVLSFWRGNLANVIRYFPTQALNFAFKDKYKQIFLGGVDKHTQFWRYFAGNLASGGAAGATSLCFVYPLDFARTRLAADVGKSGTEREFRGLGDCLVKITKSDGIRGLYQGFSVSVQGIIIYRAAYFGVYDTAKGMLPDPKNTHIVVSWMIAQTVTAVAGVVSYPFDTVRRRMMMQSGRKGADIMYTGTVDCWRKIFRDEGGKAFFKGAWSNVLRGMGGAFVLVLYDELKKVI
Q: With B9 as the binder, how does the binding [1] read?
A: The binding was “binds”.

B10: SLC25A11 (protein, UniProt Q02978 1-314)
chain: MAATASAGAGGIDGKPRTSPKSVKFLFGGLAGMGATVFVQPLDLVKNRMQLSGEGAKTREYKTSFHALTSILKAEGLRGIYTGLSAGLLRQATYTTTRLGIYTVLFERLTGADGTPPGFLLKAVIGMTAGATGAFVGTPAEVALIRMTADGRLPADQRRGYKNVFNALIRITREEGVLTLWRGCIPTMARAVVVNAAQLASYSQSKQFLLDSGYFSDNILCHFCASMISGLVTTAASMPVDIAKTRIQNMRMIDGKPEYKNGLDVLFKVVRYEGFFSLWKGFTPYYARLGPHTVLTFIFLEQMNKAYKRLFLSG
Q: For B10, which binding [1] is on record?
A: The binding was “binds”.
